Results reported in article doi:10.1101/2024.06.25.600625.
Results are given in words; binding and its absence hold for the method and conditions named. Some results given as binding are weak or reduced against the parent protein; the word gives no strength.

Target: N-terminally FlAsH-labeled Aha1 (UniProt O95433)
Experiment: fluorescence polarisation

Row | Substance | binding
1 | human Hsp90α Y38E,Y61F,Y197E (from UniProt P07900 1-732) | binds
2 | human Hsp90α Y38F,Y61F,Y197F (from UniProt P07900 1-732) | binds
3 | human Hsp90α Y61E (from UniProt P07900 1-732) | binds
4 | human Hsp90α Y197E (from UniProt P07900 1-732) | binds
5 | wild-type human Hsp90α (from UniProt P07900 1-732) | binds

Continued, values first:

Row | binding | Substance
6 | binds | human Hsp90α Y38E (from UniProt P07900 1-732)
7 | binds | human Hsp90α Y38F (from UniProt P07900 1-732)
8 | binds | human Hsp90α Y38F,Y61E,Y197E (from UniProt P07900 1-732)
9 | binds | human Hsp90α Y38F,Y61F,Y197E (from UniProt P07900 1-732)
10 | binds | human Hsp90α Y61F (from UniProt P07900 1-732)
11 | binds | human Hsp90α Y197F (from UniProt P07900 1-732)

Target: wild-type human Hsp90α (human) (UniProt P07900)
Experiment: fluorescence polarisation

Row | binding | Substance
12 | binds | unlabeled Aha1 (from UniProt O95433 1-338)
